Reference: patent publication US20120270914A1, “SPLIT-LUCIFERASE C-MYC SENSOR AND USES THEREOF” (THE BOARD OF TRUSTEES OF THE LELAND STANFORD JUNIOR …, priority 2011, published 2012)
These are yes or no findings as the source states them, for the method shown. Some entries that bind do so weakly or less than the wild type.

Amino acid sequences for entries named in this document (tags omitted). A change or cut given only in a name is not applied to a line headed by its entry.
UniProt P49841: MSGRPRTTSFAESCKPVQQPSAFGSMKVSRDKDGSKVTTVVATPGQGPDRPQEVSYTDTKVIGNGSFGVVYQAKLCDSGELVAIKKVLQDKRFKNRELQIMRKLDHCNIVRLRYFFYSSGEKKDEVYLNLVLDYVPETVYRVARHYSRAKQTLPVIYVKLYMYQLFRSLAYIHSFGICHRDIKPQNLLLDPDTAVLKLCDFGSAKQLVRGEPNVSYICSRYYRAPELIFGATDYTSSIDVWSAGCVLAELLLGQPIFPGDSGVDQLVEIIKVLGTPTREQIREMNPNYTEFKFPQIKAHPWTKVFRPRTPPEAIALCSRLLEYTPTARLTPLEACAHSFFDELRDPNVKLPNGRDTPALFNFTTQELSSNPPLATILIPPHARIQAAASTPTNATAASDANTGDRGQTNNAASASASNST

Biological target: NFL-c-Myc (firefly) [luciferase: P08659]
Assay: split firefly luciferase complementation, BLI in SKBR3 cells

binding	Substance
binds	GSK 35-433-CFL (from UniProt P49841 35-420)
binds	GSK Full-CFL (from UniProt P49841 1-420)
